Results reported in publication PMC11840727.

Sequences of proteins named here, by UniProt entry; tags and fusion partners are left off.
UniProt P51784: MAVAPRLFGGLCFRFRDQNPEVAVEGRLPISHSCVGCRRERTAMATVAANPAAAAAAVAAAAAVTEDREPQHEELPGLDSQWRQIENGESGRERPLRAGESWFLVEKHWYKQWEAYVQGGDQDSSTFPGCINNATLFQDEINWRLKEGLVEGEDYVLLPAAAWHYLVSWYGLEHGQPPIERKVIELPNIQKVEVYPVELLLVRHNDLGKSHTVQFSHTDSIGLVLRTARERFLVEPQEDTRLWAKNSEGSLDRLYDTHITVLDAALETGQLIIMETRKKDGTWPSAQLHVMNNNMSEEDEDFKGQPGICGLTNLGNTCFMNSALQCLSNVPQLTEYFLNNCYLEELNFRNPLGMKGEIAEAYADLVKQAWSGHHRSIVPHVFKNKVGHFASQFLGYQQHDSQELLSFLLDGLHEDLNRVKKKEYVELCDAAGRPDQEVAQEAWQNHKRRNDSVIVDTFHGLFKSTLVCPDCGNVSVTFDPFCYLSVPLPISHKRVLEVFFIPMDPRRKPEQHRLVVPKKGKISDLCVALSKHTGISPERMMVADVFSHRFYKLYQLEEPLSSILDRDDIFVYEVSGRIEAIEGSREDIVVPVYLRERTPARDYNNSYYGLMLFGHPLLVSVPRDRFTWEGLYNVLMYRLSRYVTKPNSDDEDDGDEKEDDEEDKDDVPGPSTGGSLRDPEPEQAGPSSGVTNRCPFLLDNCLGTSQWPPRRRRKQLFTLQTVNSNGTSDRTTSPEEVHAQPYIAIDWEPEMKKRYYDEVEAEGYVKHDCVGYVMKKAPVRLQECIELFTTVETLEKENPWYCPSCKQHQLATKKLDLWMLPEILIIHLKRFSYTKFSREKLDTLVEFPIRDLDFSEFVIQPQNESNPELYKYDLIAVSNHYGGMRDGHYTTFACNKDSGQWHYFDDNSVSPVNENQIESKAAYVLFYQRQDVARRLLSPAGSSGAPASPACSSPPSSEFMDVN

Biological target: T1, DLGAP5 overexpressed in 293T cells (bait of the IP with LC-MS/MS) (UniProt Q15398)
T1 sequence: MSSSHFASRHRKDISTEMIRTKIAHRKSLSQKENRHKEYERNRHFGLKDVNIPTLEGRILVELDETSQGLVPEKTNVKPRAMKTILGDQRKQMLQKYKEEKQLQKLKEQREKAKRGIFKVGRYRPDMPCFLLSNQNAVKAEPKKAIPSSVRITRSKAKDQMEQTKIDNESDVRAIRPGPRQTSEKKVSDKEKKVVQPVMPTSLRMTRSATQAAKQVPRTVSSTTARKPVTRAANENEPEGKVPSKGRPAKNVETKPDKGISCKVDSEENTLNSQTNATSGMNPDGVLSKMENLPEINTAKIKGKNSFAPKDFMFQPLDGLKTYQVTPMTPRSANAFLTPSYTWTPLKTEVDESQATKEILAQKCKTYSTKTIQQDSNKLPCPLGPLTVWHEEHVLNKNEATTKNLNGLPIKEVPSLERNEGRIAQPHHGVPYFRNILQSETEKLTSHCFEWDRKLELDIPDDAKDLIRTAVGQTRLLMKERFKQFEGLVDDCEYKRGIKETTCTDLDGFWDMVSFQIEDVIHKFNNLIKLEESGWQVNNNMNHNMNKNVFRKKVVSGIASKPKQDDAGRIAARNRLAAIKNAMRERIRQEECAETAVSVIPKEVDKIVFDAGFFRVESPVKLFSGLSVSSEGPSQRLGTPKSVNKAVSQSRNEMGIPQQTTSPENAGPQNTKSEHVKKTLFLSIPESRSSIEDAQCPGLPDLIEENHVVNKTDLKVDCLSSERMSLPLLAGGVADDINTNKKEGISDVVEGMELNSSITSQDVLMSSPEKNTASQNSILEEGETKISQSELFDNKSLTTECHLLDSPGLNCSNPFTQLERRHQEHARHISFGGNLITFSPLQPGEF
Assay: affinity purification with mass spectrometry; IP of DLGAP5 overexpressed in 293T cells and subsequent LC-MS/MS

USP11 (found by LC-MS/MS in the IP of DLGAP5) (from UniProt P51784 1-963) (enzyme)
binding: binds

Results are given in words; binding and its absence hold for the method and conditions named. Binding seen in cells or lysates may run through a third protein. These calls come from enrichment with a bait or labelling near it, and not all partners need be listed.
